Measured values taken from article PMC11796359, “Identification and characterization of the functional tetrameric UDP-glucose pyrophosphorylase from Klebsiella pneumoniae” (mBio, 2024).
These are yes or no findings as the source states them, for the method shown. Some binding calls cover weakened binding; strength is not graded here. For some assays here: Where a sequence is shown, tags or fusion partners need not be part of it.

B1: Klebsiella pneumoniae UDP-glucose pyrophosphorylase (galU gene product), wild type (enzyme, UniProt A6TAK9 1-300, looked up)
chain: MAALNSKVRKAVIPVAGLGTRMLPATKAIPKEMLPLVDKPLIQYVVNECIAAGITEIVLVTHSSKNSIENHFDTSFELEAMLEKRVKRQLLEEVQSICPPHVTIMQVRQGLAKGLGHAVLCAHPVVGDEPVAVILPDVILDEYESDLSRDNLAEMISRFDETGASQIMVEPVEDVTAYGVVDCKGESLKPGESVPMVGVVEKPKADVAPSNLAVVGRYVLSADIWPLLAKTPPGAGDEIQLTDAIDMLIEKETVEAYHMKGKSHDCGNKLGYMQAFVEYGIRHKTLGDDFKAWLETAVAK
notes: UDP-glucose pyrophosphorylase (galU gene product) of K. pneumoniae subsp. pneumoniae type strain DSM 30104 (ATCC 13883, NCTC 9633), cloned from genomic DNA; UniProt entry printed for the AlphaFold query; 34.6 kDa with tag; no cleavage of the tag is described; Also made from pETDuet-1 with the same oligomeric state; also called KpUGP; KpUGP wt; not shown: Strep-tagII, N-terminal, kept
B2: Klebsiella pneumoniae GalF (galF gene product), wild type (natural protein, UniProt Q48447 1-298, looked up)
chain: MNMANLKAVIPVAGLGMHMLPATKAIPKEMLPIVDKPMIQYIVDEIVAAGIKEIVLVTHSSKNAVENHFDTSYELEALLEQRVKRQLLAEVQAICPPGVTIMNVRQAQPLGLGHSILCARPVVGDNPFVVVLPDIILDGGTADPLRYNLAAMIARFNETGRSQVLAKRMPGDLSEYSVIQTKEPMVAEGQVARIVEFIEKPDEPQTLDSDLMAVGRYVLSADIWAELERTEPGAWGRIQLTDAIAELAKKQSVDAMLMTGESYDCGKKMGYMQAFVTYGMRNLKEGAKFRESIKKLLA
notes: GalF (galF gene product) of K. pneumoniae subsp. pneumoniae type strain DSM 30104 (ATCC 13883, NCTC 9633), cloned from genomic DNA into MCS1 of pETDuet-1; UniProt entry printed for the AlphaFold query; 34.3 kDa with tag; no cleavage of the tag is described; also called KpGalF; KpGalF wt

Legend:
[1] = biological target: Klebsiella pneumoniae UDP-glucose pyrophosphorylase (galU gene product), wild type (Klebsiella pneumoniae) (UniProt A6TAK9); assay: native gel or EMSA; blue native PAGE, 4.5 µg of each protein on a uniform 12% native gel, followed by in-gel activity staining; both purified
[2] = biological target: Klebsiella pneumoniae GalF (galF gene product), wild type (Klebsiella pneumoniae) (UniProt Q48447); assay: as above

Binder | binding [1] | binding [2]
B1 | binds | –
B2 | – | binds
